Reference: PubChem BioAssay AID248 (DTP/NCI, 2004)
The list is a part of this screen's results and no random one: it gathers tests that were run many times, whatever their T/C, doses with no T/C, and many T/C values between a quarter and a half above the control. Further doses and runs are listed elsewhere. T/C is the treated group as % of the vehicle group. Some entries give survivors of the animals treated and no T/C: the source files T/C as zero there, which appears to mark a toxic dose or a test without result, not a measured value. Some survivor counts are full or nearly so, which does not show that the dose was tolerated: survival well below the control is almost never listed, so the zero probably covers shortened survival too. Counts of survivors are from the toxicity check (mostly the fifth day) where no day follows; animals may have died later. Schedule codes are those of the source, read here as Q, the interval in days (D) or hours (H), X, the number of doses. Some doses were run more than once; the results are listed from low to high. Where survival is the endpoint, this PubChem deposit counts one and a half times the control or more as active, and values a quarter to a half above the control carry no call in these data; other NCI protocols may use other cut-offs. Some T/C values carry the count of animals alive at the toxicity check (mostly the fifth day); where none is given, no animal had died by that day.

System: L1210 leukemia ip in BDF1 mice, survival T/C
Test: NCI In Vivo Anticancer Drug Screen. Data for tumor model L1210 Leukemia (intraperitoneal) in B6D2F1 (BDF1) mice
Conditions: T/C endpoint: mean survival time, higher T/C = longer survival
[1] = dose: 300.0 mg/kg/injection, schedule: Q01DX001 (ip), vehicle: other
[2] = dose: 400.0 mg/kg/injection, schedule: Q01DX001 (ip), vehicle: saline
[3] = dose: 200.0 mg/kg/injection, schedule: Q01DX001 (ip), vehicle: Klucel (hydroxypropylcellulose) (HPC)
[4] = dose: 100.0 mg/kg/injection, schedule: Q04DX003 (ip), vehicle: Klucel (hydroxypropylcellulose) (HPC)
[5] = dose: 200.0 mg/kg/injection, schedule: Q04DX003 (ip), vehicle: Klucel (hydroxypropylcellulose) (HPC)
[6] = dose: 400.0 mg/kg/injection, schedule: Q04DX003 (ip), vehicle: Klucel (hydroxypropylcellulose) (HPC)
[7] = dose: 200.0 mg/kg/injection, schedule: Q01DX001 (ip), vehicle: saline with Tween-80
[8] = dose: 400.0 mg/kg/injection, schedule: Q01DX001 (ip), vehicle: saline with Tween-80
[9] = dose: 75.0 mg/kg/injection, schedule: Q01DX001 (ip), vehicle: other
[10] = dose: 150.0 mg/kg/injection, schedule: Q01DX001 (ip), vehicle: other
[11] = dose: 100.0 mg/kg/injection, schedule: Q04DX002 (ip), vehicle: Klucel (hydroxypropylcellulose) (HPC)
[12] = dose: 200.0 mg/kg/injection, schedule: Q04DX002 (ip), vehicle: Klucel (hydroxypropylcellulose) (HPC)
[13] = dose: 400.0 mg/kg/injection, schedule: Q04DX002 (ip), vehicle: Klucel (hydroxypropylcellulose) (HPC)
[14] = dose: 400.0 mg/kg/injection, schedule: Q04DX003 (ip), vehicle: other
[15] = dose: 50.0 mg/kg/injection, schedule: Q04DX002 (ip), vehicle: Klucel (hydroxypropylcellulose) (HPC)

In the case of `CCCCCCC(C)N(C)CCOC(=O)c1ccc([N+](=O)[O-])cc1` (centres undefined), the survivor count [1] is reported as 1 of 6.

With `Cc1ccc(S(=O)(=O)NCCC(=N)N)cc1` the survivor count [2] was 1 of 6.

In the case of `COc1ccc(/C=N\NC(=O)N/N=C/c2ccc(OC)c(OC)c2)cc1OC`, the survivor count [3] is reported as 6 of 6.

For `CCCCN(CCCC)C(=N)C(=N)N(CCCC)CCCC`, the survivor count (dose: 200.0 mg/kg/injection, schedule: Q04DX002 (ip), vehicle: saline with Tween-80) was 1 of 3.

`NC(=O)CS` was tested, and the survivor count [2] was 1 of 4.

With `CC[N+](C)(CC)CCSC(=O)Nc1ccc(Cc2ccc(NC(=O)SCC[N+](C)(CC)CC)cc2)cc1` the survivor count (dose: 25.0 mg/kg/injection, schedule: Q01DX009 (ip), vehicle: Klucel (hydroxypropylcellulose) (HPC)) was 0 of 6, the survivor count (dose: 40.0 mg/kg/injection, schedule: Q04DX003 (ip), vehicle: Klucel (hydroxypropylcellulose) (HPC)) was 0 of 6 and the survivor count (dose: 50.0 mg/kg/injection, schedule: Q01DX009 (ip), vehicle: Klucel (hydroxypropylcellulose) (HPC)) was 0 of 6. The survivor count (dose: 50.0 mg/kg/injection, schedule: Q04DX003 (ip), vehicle: Klucel (hydroxypropylcellulose) (HPC)) was 1 of 6, the survivor count [4] was 0 of 6 and the survivor count [5] was 0 of 6. The survivor count [6] was 0 of 6.

In the case of `CCCCN(CCCC)CC(O)c1cc(Cl)cc2cccnc12` (centres undefined), the survivor count (dose: 100.0 mg/kg/injection, schedule: Q01DX001 (ip), vehicle: Klucel (hydroxypropylcellulose) (HPC)) is reported as 3 of 6, the survivor count [3] is reported as 1 of 6 and the survivor count (dose: 400.0 mg/kg/injection, schedule: Q01DX001 (ip), vehicle: Klucel (hydroxypropylcellulose) (HPC)) is reported as 1 of 6.

With `CCCN(CCC)NC(=O)c1ccc(N=NN(C)C)cc1` the survivor count [7] was 1 of 3 and the survivor count [8] was 0 of 3.

For `CCN1/C(=C/C(C)=C/c2[se]c3ccc(C)cc3[n+]2CC)[Se]c2ccc(C)cc21`, the survivor count (dose: 8.0 mg/kg/injection, schedule: Q01DX001 (ip), vehicle: other) was 0 of 6, the survivor count (dose: 9.5 mg/kg/injection, schedule: Q01DX001 (ip), vehicle: other) was 0 of 6 and the survivor count (dose: 19.0 mg/kg/injection, schedule: Q01DX001 (ip), vehicle: other) was 0 of 6. For the same molecule, the survivor count (dose: 38.0 mg/kg/injection, schedule: Q01DX001 (ip), vehicle: other) was 0 of 6, the survivor count [9] was 0 of 6 and the survivor count [10] was 0 of 6. The survivor count [1] was 0 of 6.

In the case of `C1=C2CN3CCC45c6ccccc6N6CCC(OC1)C(C2CC34)C65` (centres undefined), the survivor count (dose: 2.5 mg/kg/injection, schedule: Q01DX001 (ip), vehicle: other) is reported as 3 of 6 and the survivor count (dose: 5.0 mg/kg/injection, schedule: Q01DX001 (ip), vehicle: other) is reported as 0 of 6.

With `CCC[CH2][Ge]([Cl])([Cl])[CH2]CCC` the survivor count (dose: 100.0 mg/kg/injection, schedule: Q01DX009 (ip), vehicle: Klucel (hydroxypropylcellulose) (HPC)) was 3 of 6.

For `S=c1nc[nH]c2c1ncn2Cc1ccc(Cl)c(Cl)c1`, the T/C [11] was 127 % of control.

With `CC12CC3CC(C)(C1)CC(SCCN=C(N)CCl)(C3)C2` the survivor count [11] was 0 of 3, the survivor count [12] was 0 of 3 and the survivor count [13] was 0 of 3.

In the case of `C[N+](C)(C)c1ncnc2c1ncn2C1CC(O)C(CO)O1` (centres undefined), the survivor count [2] is reported as 1 of 4.

With `C[N+]1(CCCl)CC[N+](C)(CCCl)CC1` (centres undefined) the T/C (dose: 400.0 mg/kg/injection, schedule: Q04DX002 (ip), vehicle: saline) was 129 % of control.

For `Cn1nnc2c1C(=O)c1ccccc1C2=O`, the survivor count [14] was 2 of 6.

`COc1ccc(/C=C/c2ccc3ccccc3[n+]2C)cc1` was tested, and the survivor count [4] was 4 of 6 and 6 of 6, the survivor count [5] was 1 of 6 and the survivor count [6] was 0 of 6.

`C(/C=C/C=C/N1CCCCC1)=[N+]1CCCCC1` was tested, and the survivor count (dose: 1.56 mg/kg/injection, schedule: Q04DX003 (ip), vehicle: saline) was 0 of 6, the survivor count (dose: 3.13 mg/kg/injection, schedule: Q04DX003 (ip), vehicle: saline) was 4 of 6 and the survivor count (dose: 6.25 mg/kg/injection, schedule: Q04DX003 (ip), vehicle: saline) was 0 of 6. The survivor count (dose: 12.5 mg/kg/injection, schedule: Q04DX003 (ip), vehicle: saline) was 0 of 6, the survivor count (dose: 25.0 mg/kg/injection, schedule: Q04DX003 (ip), vehicle: saline) was 0 of 6 and the survivor count (dose: 50.0 mg/kg/injection, schedule: Q04DX003 (ip), vehicle: saline) was 0 of 6. The survivor count (dose: 100.0 mg/kg/injection, schedule: Q04DX003 (ip), vehicle: saline) was 0 of 6, the survivor count (dose: 200.0 mg/kg/injection, schedule: Q04DX003 (ip), vehicle: saline) was 0 of 6 and the survivor count (dose: 400.0 mg/kg/injection, schedule: Q04DX003 (ip), vehicle: saline) was 0 of 6.

`C[As](C)(=S)[As](C)(C)=S` was tested, and the T/C [15] was 129 % of control, the survivor count [15] was 3 of 3 and the survivor count [11] was 1 of 3 and 3 of 3. The survivor count [12] was 0 of 3 and the survivor count [13] was 0 of 3.

In the case of `Cc1ccc(S(=O)(=O)F)cc1N`, the T/C (dose: 100.0 mg/kg/injection, schedule: Q01DX009 (ip), vehicle: carboxymethylcellulose (CMC)) is reported as 93, 97, 100, 106 % of control [5 of 6 alive], the survivor count (dose: 200.0 mg/kg/injection, schedule: Q01DX009 (ip), vehicle: carboxymethylcellulose (CMC)) is reported as 0 of 3 and 0 of 6 and the survivor count (dose: 400.0 mg/kg/injection, schedule: Q01DX009 (ip), vehicle: carboxymethylcellulose (CMC)) is reported as 0 of 3 and 0 of 6.

`CC(=O)N(C)c1cc([N+](=O)[O-])ccc1OCc1ccccc1` was tested, and the survivor count (dose: 200.0 mg/kg/injection, schedule: Q01DX001 (ip), vehicle: saline) was 3 of 6 and the survivor count [2] was 0 of 6.

For `C=CC[n+]1c(C)ccc2ccccc21`, the survivor count (dose: 100.0 mg/kg/injection, schedule: Q01DX009 (ip), vehicle: saline with Tween-80) was 0 of 6, the survivor count [7] was 1 of 6 and the survivor count [8] was 0 of 6.

With `Cc1ccc(NC(=S)NN)cc1F` the survivor count [9] was 3 of 6, the survivor count [10] was 0 of 6 and the survivor count [1] was 0 of 6.

With `CC(=O)N(C)N=Nc1ccc(C)cc1` the T/C (dose: 200.0 mg/kg/injection, schedule: Q01DX009 (ip), vehicle: Klucel (hydroxypropylcellulose) (HPC)) was 128 [5 of 6 alive] and 133 % of control and the survivor count [14] was 3 of 6.
